Measurements as given in article PMC6277429.
For at least one entry, the source does not settle the construct or the ends of the probe. A weaker result is weaker than the reference pair of the same experiment. Where a protein sequence is shown, tags need not be part of it.

Molecular target: T1, His-GlnR (Mycobacterium smegmatis mc2 155) (UniProt A0R4C4)
T1 sequence (looked up): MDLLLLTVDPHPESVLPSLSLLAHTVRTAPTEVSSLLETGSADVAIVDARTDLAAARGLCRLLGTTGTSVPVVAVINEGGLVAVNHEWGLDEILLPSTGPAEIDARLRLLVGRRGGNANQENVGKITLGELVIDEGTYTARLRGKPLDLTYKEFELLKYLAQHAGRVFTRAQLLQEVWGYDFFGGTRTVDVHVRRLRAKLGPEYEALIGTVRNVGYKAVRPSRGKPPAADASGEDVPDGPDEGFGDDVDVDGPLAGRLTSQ
Assay: EMSA
Conditions: 4 uM GlnR, modest interaction; 10 mM Tris pH 7.5, 100 mM KCl (Fig. 3 legend; not in Methods), 1 mM DTT, 2.5% glycerol, 20 mM MgCl2, 500 ng poly(dI-dC), 0.05% NP-40; 30 nM DNA; 10 min room temperature; recombinant protein; residues 1-261; protein details: N-terminal His (pET28a); label: HEX 5'; probe letters rebuilt from the primers and the genome

“CATAGGGCGAGGCTAAGAACCCGATATTGCCGCGATGTCGCGCTGTGTGAAGCCCCCATCACGGTGTGCTCACGTCTTCGGCAACGCACATGTGAGGTCCCCGACCGGTGAGCTCTCCGGACCACAGTCAGGCCACAACCGCC (double strand) [msmeg_0427 promoter]”: binds more weakly.
